The text below walks through data of article PMC3264566.

Sequences of proteins named here, by UniProt entry; tags and fusion partners are left off. Residues count along the entry.
UniProt P21866, 124-225: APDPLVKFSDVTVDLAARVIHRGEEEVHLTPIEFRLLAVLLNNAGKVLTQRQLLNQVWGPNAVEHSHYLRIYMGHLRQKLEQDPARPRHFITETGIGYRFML

Negatives hold for the conditions tested. At least one verdict was read from the data and is not stated in words by the source. The exact form of at least one protein or probe is not confirmed. A weaker result is weaker than the reference pair of the same experiment.

One data set deals with KdpE DBD (KdpEDBD) (Escherichia coli str. K-12 substr. MG1655) (UniProt P21866). The data set can be described thus: EMSA. Conditions: 1:8 DNA:protein, binds 1:1 in AUC; EMSA: 10 mM Tris pH 8.0, 50 mM NaCl, 5% glycerol, 0.1% Triton X-100, 10 mM DTT, 1 mM EDTA, 1 uM DNA, 6% gel in TBE, temperature not stated; recombinant protein; residues 124-225; protein details: N-terminal His-tag removed with TEV.
As for “CATTTTTATACTTTTTCCACACCCCGCCCG (double strand) [kdpFABCBS-7]”, the binding result is reported as “no binding”. Still for that read-out and setting: the value for “CATTCCTATACTTTTTTTACACCCCGCCCG (double strand) [kdpFABCBS-1]” was “no binding”.

The data set is the same for the next values; noted with them: 1:8 DNA:protein, changes A4 of S2; EMSA: 10 mM Tris pH 8.0, 50 mM NaCl, 5% glycerol, 0.1% Triton X-100, 10 mM DTT, 1 mM EDTA, 1 uM DNA, 6% gel in TBE, temperature not stated; recombinant protein; residues 124-225; protein details: N-terminal His-tag removed with TEV.
In the case of “CATTTTTATACTTTTTTTGTACCCCGCCCG (double strand) [kdpFABCBS-8]”, the binding result is given as “no binding”.

The data set is the same for the next values; noted with them: 1:8 DNA:protein, changes first T of S2; EMSA: 10 mM Tris pH 8.0, 50 mM NaCl, 5% glycerol, 0.1% Triton X-100, 10 mM DTT, 1 mM EDTA, 1 uM DNA, 6% gel in TBE, temperature not stated; recombinant protein; residues 124-225; protein details: N-terminal His-tag removed with TEV.
Turning to “CATTTTTATACTTTCCTTACACCCCGCCCG (double strand) [kdpFABCBS-6]”, the binding result is given as “no binding”.

Staying with this data set, now noted: 1:8 DNA:protein; EMSA: 10 mM Tris pH 8.0, 50 mM NaCl, 5% glycerol, 0.1% Triton X-100, 10 mM DTT, 1 mM EDTA, 1 uM DNA, 6% gel in TBE, temperature not stated; recombinant protein; residues 124-225; protein details: N-terminal His-tag removed with TEV.
Consider “CATTTTCGTACTTTTTTTACACCCCGCCCG (double strand) [kdpFABCBS-2]”, for which the binding result is on record as “no binding”.

Still in this data set, the particulars now being: EMSA: 10 mM Tris pH 8.0, 50 mM NaCl, 5% glycerol, 0.1% Triton X-100, 10 mM DTT, 1 mM EDTA, 1 uM DNA, 6% gel in TBE, temperature not stated; recombinant protein; residues 124-225; protein details: N-terminal His-tag removed with TEV.
Regarding “CATTTTCATACTTTTTTTACACCCCGCCCG (double strand) [kdpFABCBS 7TC]”, the binding result is on record as “binds more weakly”. Still for that read-out and setting: as for “CATCTTTATACTTTTTTTACACCCCGCCCG (double strand) [kdpFABCBS 4TC]”, the entry is “binds more weakly”.

As for “CATTTCTATACTTTTTTTACACCCCGCCCG (double strand) [kdpFABCBS 6TC]”, the binding result is reported as “binds more weakly”. Still for that read-out and setting: the value for “CATTTTTATACTCTTTTTACACCCCGCCCG (double strand) [kdpFABCBS 13TC]” was “binds more weakly”; that for “CATTTTTATACTTTTTTCACACCCCGCCCG (double strand) [kdpFABCBS 18TC]” was “binds more weakly”. The same measure, in the same setting: as for “CATTTTTGTACTTTTTTTACACCCCGCCCG (double strand) [kdpFABCBS 8AG]”, the entry is “binds more weakly”. On the same count and under the same terms, the value for “CATTTTTATACTTTTTCTACACCCCGCCCG (double strand) [kdpFABCBS 17TC]” was “binds more weakly”.

For the sequence “CATTTTTATACTTCTTTTACACCCCGCCCG (double strand) [kdpFABCBS 14TC]”, the binding result is listed as “binds more weakly”. Still for that read-out and setting: the value for “CACTTTTATACTTTTTTTACACCCCGCCCG (double strand) [kdpFABCBS 3TC]” was “binds more weakly”; that for “CATTTTTATACTTTCTTTACACCCCGCCCG (double strand) [kdpFABCBS 15TC]” was “binds more weakly”.

As to “CATTTTTATACTTTTCTTACACCCCGCCCG (double strand) [kdpFABCBS 16TC]”, the binding result is on record as “binds more weakly”. For “CATTTTTATACTTTTTTTGCACCCCGCCCG (double strand) [kdpFABCBS 19AG]”, the binding result is recorded as “binds more weakly”.

The same data set, now with this note: contains minimal 21 bp; EMSA: 10 mM Tris pH 8.0, 50 mM NaCl, 5% glycerol, 0.1% Triton X-100, 10 mM DTT, 1 mM EDTA, 1 uM DNA, 6% gel in TBE, temperature not stated; recombinant protein; residues 124-225; protein details: N-terminal His-tag removed with TEV.
“ATTTTTATACTTTTTTTACACCCCGCCCG (double strand) [kdpFABCBS 5'del1]”: the binding result is reported as “binds”. With “CATTTTTATACTTTTTTTACACC (double strand) [kdpFABCBS 3'del7]”, the binding result is recorded as “binds”. Same read-out and setting: the value for “CATTTTTATACTTTTTTTACACCC (double strand) [kdpFABCBS 3'del6]” was “binds”; that for “CATTTTTATACTTTTTTTACAC (double strand) [kdpFABCBS 3'del8]” was “binds”; that for “CATTTTTATACTTTTTTTACACCCCGC (double strand) [kdpFABCBS 3'del3]” was “binds”.
